We go through 107 sequences from PubChem BioAssay AID1508600 (Functional Genomics Laboratory (NCATS/FGL), 2020).

Hit rate of the full screen: of about 53,000 sequences, about 3,700 (7%) were called active.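 Rule for the calls: active = gene knockdowns whose robust z-score for IL-1 alpha signal is at least 2 or at most -2, so actives lie on both sides; inactive = the rest.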 This is one part of the list.

A short description of this assay: Components of the Cytosolic LPS Sensing Pathway: Gene Identification via Genome-wide siRNA Screen.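 Note: robust z of the log signal after scaling to non-targeting control siRNA wells of the plate.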 Particulars: RAW264.7 macrophages, IL-1a HTRF, actives lie on both sides, screened at 100 nM (by protocol), cells primed 5 h with Pam3CSK4 first. A digest of the protocol:
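Cells (RAW264.7, 1×10^4 per well) were transfected with siRNA at 100 nM and cultured 48h at 37 degrees C. Pam3CSK4 was added for 5 hours; LipidA transfection followed for 24 hour. IL-1a was then measured by HTRF.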
As for CGGCAACCACAAUAUCAAUTT against Mill1, the z-score was inactive: 1.15.
On to GGAUCGAAUCAGGAAUGAATT against Nphs1, for which the z-score was inactive: 1.39.
Consider GGAAGAAAGAAGAAGAGACTT against Lig1, for which the z-score was inactive: -0.533.
Regarding GCGUCUCAUAGAGUUGGUGTT against Mblac2, the z-score was inactive: 0.0617.
Take GGGCCAGUACCAGAAAGAATT against Xcl1: the z-score is inactive: -0.0888.
Turning to GCCCAUGUGACGAUAACUGTT against Ociad1, the z-score is inactive: 0.892.
On to GGGAGGAUUCAUGUUGUGUTT against Morc1, for which the z-score was inactive: 1.19.
With CCGAUUUGAUACCCUGGAATT against Tfpi, the z-score is inactive: -0.695.
For the sequence GGGCGAGCAGUUUGUGUUUTT against Crybb2, the z-score was inactive: 1.58.
For the sequence CCUUUAACCCUCAACUCAATT against Selenos, the z-score is inactive: -0.251.
As to CCUGAAAGUUCAAAUGUCATT against Ankrd12, the z-score was inactive: 0.467.
As to GGAGAACUCUUUCAGAUUCTT against Stk36, the z-score is inactive: 0.957.
In the case of CCCUGACCGUUUGCUAUAUTT against LOC574530, the z-score is inactive: 0.6.
Regarding CCGCUACCUCUCGCUAUAUTT against Gpr12, the z-score was inactive: -0.363.
Consider GUAAUCUGUCUUUCGUUGATT against Olfr957, for which the z-score is inactive: 0.68.
With GGAAAAGCAAGAGGAAAGATT against Ifnb1 the figure was active: 2.39; with GGAAAAGUUCUUAAAGCUGTT against Tmem67, inactive: -0.723; with GGAGAAAGGAUUGUGUUUGTT against Clec10a, active: 2.2.
With GCAGAUCGUGCGGAUCUUGTT against Bcdin3d the figure was active: 2.1.
As to CCCGUGCUUCAAAUAGAGATT against Cavin3, the z-score is inactive: 0.789.
With CCAAAUUACUAGGUUAAAGTT against Rasgrp3 the figure was inactive: -0.15; with GGAAAAUCCCUGUGUCCGATT against Spdye4a, inactive: -1.34; with GGAAUUUUUUCAUACCACUTT against Wipf1, inactive: 0.738.
With GCGUAAAAUUUGGUGCAACTT against Cfap20dc, the z-score is inactive: 1.15.
In the case of GGUGGACAAUCUGGUCAACTT against Mgat5, the z-score was inactive: 1.41.
GGAACAUUACAAAAGCUCUTT against Slfn1: the z-score is inactive: -0.872.
With CCGACAUUCAACAAGAUUUTT against Mta1, the z-score was inactive: -0.092.
For GCUCGGAUUUCCUACUCACTT against Agps, the z-score was inactive: -0.493.
Turning to GGUUGAUUUAAACAUUGGATT against Pcdhgb2, the z-score is inactive: 1.83.
For the sequence GGUGCUGCUGAGAUUUUUCTT against Pxt1, the z-score is inactive: 0.555.
With CGACCAGCCAUGGUACAAATT against Ptprd the figure was inactive: -0.83; with CCAUUGAGGUAAUGUUUGATT against Rmnd1, inactive: 0.978.
GGAAAUCCUUACUAUGCAUTT against Enam: the z-score is inactive: 0.406.
The figure for GGAAAAGGGCAAGCACAUGTT against Naa10 is inactive: 0.833; for GGAGCUGAUGGUUGAAUGUTT against Ehbp1 it is inactive: 0.177.
Turning to CGUGUUAGGUCUUCCUCCUTT against Ptges3l, the z-score was inactive: -1.49.
On to GCUGUUAAAACUCUCGUUATT against Pdk3, for which the z-score was active: 2.02.
In the case of GGACAAUGUAGUUUAUCACTT against Cdnf, the z-score is inactive: -1.72.
Turning to CCAUGUAAGUUAUAAGUGUTT against Nxph1, the z-score is inactive: -0.661.
On to CCUACCUGAUCGUUCCUUATT against Arsb, for which the z-score is inactive: 0.37.
On to GCCUCAAAUAUCGGGCCAUTT against Rapsn, for which the z-score is inactive: 1.64.
With GGAAGAUUUCUUCACCGACTT against Ptf1a the figure was inactive: 1.4; with GCAUAUUAGUGCUUUUCCCTT against Olfr78, inactive: 0.0338; with GGGAAUCGGACCAACUUACTT against Adssl1, active: 3.64.
For GGACUUCCCGAACUACAUATT against Zfp52, the z-score was inactive: 0.0339.
With GGAUCUGAAGAUGAUGAACTT against Ces2e, the z-score was inactive: 0.0623.
On to “GGCAGAGUGCUGGAUUUGUTT against 4933409G03Rik”, for which the z-score is inactive: 0.955.
GGUACUUUUACUCCCGAAGTT against Lgals3bp: the z-score is active: -2.05.
Consider CCCAAGGUACAUUUUUCAATT against Mab21l2, for which the z-score was inactive: 0.933.
Turning to GGAAGAGGAAUAUUACCAGTT against Marveld3, the z-score is active: -2.16.
As to GCGCGCAUUAACUACACGUTT against Zfp82, the z-score was inactive: 1.88.
For the sequence GGUGCUCAAUAAAUGGAAUTT against Dcakd, the z-score is inactive: 0.314.
CGUAGGACAAAUUAUACCATT against Gria3: the z-score was inactive: 0.502.
The figure for CGGAACUACCGCUUCUUUUTT against Zdhhc18 is inactive: 0.0121; for GGAGCCAGGAAAAUUUAUGTT against Carm1 it is inactive: -0.624; for CGGAAGAACUACAAGUCGATT against Sipa1l3 it is active: 2.09.
The figure for GCUAUAGAUUCCUCUGCCATT against Olfr1098 is inactive: -0.525; for CCGCUUGGGAUUAGCUAUGTT against Olfr543 it is inactive: -0.11.
In the case of GGGCUAUAUGGAUUUAAUGTT against Txnl1, the z-score was inactive: 1.97.
In the case of GCAAUUUUAGUUGGUGGAATT against Ddx24, the z-score was inactive: -0.112.
As to CCCAUGACUUUAGAAUAGGTT against Kcnf1, the z-score was inactive: -0.658.
Take CCUCGUUAUCCUCAUGGGATT against Alppl2: the z-score is inactive: 0.649.
As for CCUUGAAUUUAACAGGGAUTT against Shtn1, the z-score is inactive: -0.00497.
For the sequence GGAGGCUGUGAAAGAAUCATT against Gzma, the z-score was inactive: -0.848.
For the sequence GGGUAUUUUUUUGUGGCUUTT against Nsg2, the z-score is inactive: 0.489.
Turning to CCCUUUACCCUACGCGUAUTT against Ifitm2, the z-score is inactive: 0.212.
The figure for GGAAAUUACAAGCUAGCAUTT against Dnajc7 is inactive: 1.29; for GCUGCUAAUGCUUGAUUAUTT against Il7r it is inactive: 1.09.
For the sequence CGUACAGAGACAUCUUGAUTT against Idnk, the z-score was inactive: 1.06.
GCCGUGAAGAAAAUUUUGATT against Olfr270: the z-score is inactive: 0.17.
As to GGACGCAAUGGUGUCUUCUTT against Adamts16, the z-score was inactive: -0.789.
On to GGACCAUCUCUUUGAUUGGTT against Olfr424, for which the z-score is inactive: -1.12.
As to GCUCAUCGCUGAUUCGACATT against Zfp667, the z-score was inactive: -0.0832.
The figure for GGCUCUGGCAUUAAUGAACTT against Vnn1 is inactive: -0.912.
Regarding CCGCCUAAAUGACUUGACATT against Fbxw14, the z-score is inactive: -1.1.
Turning to GGCACAUUGUGGUGUCUUGTT against Pycr1, the z-score was inactive: -3e-05.
On to CGGAAUUUUAGGGAUAGGATT against Rcn1, for which the z-score is inactive: -0.155.
In the case of CCCAUUCAACUUUAGGCCCTT against Hdac7, the z-score was inactive: 0.0173.
As to GCUUCACAAGCAGUGUACUTT against Slc37a1, the z-score was inactive: -0.361.
Turning to GGAGACCUAGAUGCACUGATT against Arhgdig, the z-score was inactive: -0.644.
As for GCAGAUGUUGCGUUUCCUGTT against Ggact, the z-score was inactive: 0.0238.
As for GGCUUGGAUCUUGAGCAGATT against Magea6, the z-score was inactive: 0.819.
For CCCUAGCGGAAAUUGUCAATT against Nono, the z-score was inactive: 0.328.
For the sequence GGCUCUGGAUUACAUAGCCTT against Actn2, the z-score is inactive: 0.0268.
On to GCAGACUUGGGUGUCUCUUTT against Fam167b, for which the z-score was inactive: -0.174.
With CCACGUUACAACAUCACCUTT against Hdac11 the figure was inactive: -1.96.
GGGAUGGUUCCAUUACUUUTT against Rhcg: the z-score is inactive: 0.934.
Take CCACCGACUUCUUUUACCCTT against Sephs2: the z-score is inactive: -0.165.
Take GGGUAGGUUGUGUUUGCAUTT against Synm: the z-score was inactive: -0.846.
With CCCUUAUUGCUAGACCUAGTT against Map3k11 the figure was inactive: -1.13.
Regarding GCCCGAAGUCCAUGAUAUUTT against Ppm1a, the z-score was inactive: 0.785.
On to CGAGACACGUAGUGAAAGATT against Chrna5, for which the z-score was inactive: 0.993.
The figure for GGUGCUAAUCAUCAUCAUGTT against Draxin is inactive: 0.547.
For GGCUGACUUAUUUCAUUAATT against Dexi, the z-score is inactive: 0.101.
With GGUUUUGUCCAGAAGAAUATT against Kl the figure was inactive: -0.574; with GCCUUGUGACAGCAUUAGUTT against Slc6a13, inactive: -0.0361; with GAAAUCGGCUCAGACAUUUTT against Ssbp2, inactive: -0.392.
For the sequence GCUACACACGAUUUCAUUCTT against Dolpp1, the z-score was inactive: 0.549.
With GGUCCUGUGAGUCAUUUGATT against Mrps34 the figure was inactive: -0.191.
With GGUAACUCAAUUUUGUGUUTT against Gcsam, the z-score was inactive: 0.859.
Turning to GGUUGUGAAUGUAAGUGAGTT against Entpd1, the z-score was inactive: -0.787.
The figure for GGGCCUAGUAACUAUCAAGTT against Zfp641 is inactive: 1.4; for GCAUCAAACACUAGGGCAATT against Gpr33 it is inactive: 0.699.
Consider CCGUCGUUUUGGCCAGUAATT against Tex101, for which the z-score is inactive: 0.422.
Turning to GGUAGAAGAUGAUUACAUCTT against Spock2, the z-score is inactive: 0.408.
On to GCAUACCGGUGUGUCAGUGTT against Lamp1, for which the z-score is inactive: -0.0328.
On to GGAAGAGAAAGUAAAGAAGTT against Ptpn6, for which the z-score was inactive: 0.0296.
